Test results: PubChem BioAssay AID2685 (National Center for Advancing Translational Sciences (NCATS), 2010)
Out of some 320,000 compounds screened, about 2,100 (0.66%) were called active. This list was built around the results that the source calls inconclusive (neither active nor inactive); the mix of calls is not that of the screen. The call rests on the fitted dose curve; in most records, active means well fitted inhibition curve with a large enough effect in the signal ratio, with a control signal flat (not every such curve was filed as active); inconclusive means small, poorly fitted or top-dose-only effect, or effect the other way, or a change in a side signal; inactive means flat fitted curve, though single readings scatter; the % refers to the signal ratio. Where the call is inconclusive, the potency comes from a doubtful curve fit.

test: qHTS Assay for Lipid Storage Modulators in Drosophila S3 Cells; settings: BODIPY lipid droplet fluorescence, 18-24 h, cells fed with added oleic acid; lipid storage change, negative = inhibition: at 46.1 µM (top of the series) unless noted
Summary of the method: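 Laser-scanning cytometry quantifies lipid droplet accumulation (500–530 nm total intensity; droplet/cell object ratio) in oleic acid-fed (400 uM added) Drosophila S3 cells treated with a concentration series. 20 uM Triacsin C defined 100% inhibition.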
On the % scale 0 is the no-effect control and ±100 the full control effect; potency means the concentration at half of the fitted maximal effect.

Lipid storage change, negative = inhibition, inconclusive:
c1ccc(-c2nc(-n3nc4ccccc4n3)nc3ccccc23)cc1 27.4%
CS(=O)(=O)N(Cc1ccc(C(=O)NN=C2CCCCCC2)cc1)c1ccccc1 8.9%
CCOc1ccccc1-n1c(N)c(C(N)=O)sc1=S 31.6%
CCCCn1c(=O)c(-c2ccccc2)c(O)c2ccccc21 -38.2%
O=C(NC1CCCCC1)c1ccc(CN2CCOCC2)cc1 -192%
Cc1ccc(C(O)P(=O)(OCc2ccccc2)c2ccc(N(C)C)cc2)cc1 (centres undefined) -18.7%
Oc1ccc(-n2nnnc2SCc2ccccc2Br)cc1 -53.3%
O=C1NN(c2ccc(Cl)c(Cl)c2)C(=O)/C1=C/c1ccc(-c2ccccc2C(=O)O)o1 90.7%
Cc1ccc(C)c(NC(=O)COc2cccc3c2CCN(Cc2ccccc2C)C3=O)c1 19.2%
COc1ccc(C(=O)N2CCCN(C)CC2)cc1S(=O)(=O)N(C)Cc1ccccc1 21.3%
O=C(CN1C(=O)COc2ccccc21)NC1CCCC1 154%
Cc1ccccc1OCC(=O)NNC(=O)c1ccc(-n2cncn2)c([N+](=O)[O-])c1 14.7%
Cc1ccc2nc3ccc(N4CCCCCCC4)nn3c(=O)c2c1 7.99%
COCCCNS(=O)(=O)c1ccc2[nH]c3c(c2c1)CCCCC3 20.5%
COCCN1C(=O)Cc2c1nc(N)c1c(N)nc(N3CCN(c4ccc(F)cc4)CC3)c(C#N)c21 64%
Cc1ccc(CCN2CC(C(=O)NCCCN3CCN(C)CC3)CC2=O)cc1 (centres undefined) -32.8%
CCC(C)C(NC(=O)c1ccccc1NC(=O)c1ccccc1)C(=O)O (centres undefined) 12.5%
CC(=O)Nc1cccc(NC(=O)C2CCCN2C(=O)Nc2ccc(C)cc2)c1 (centres undefined) -7.73%
CC(=O)Nc1ccc(S(=O)(=O)NCC2CCC(C(=O)NC(C)c3ccccc3)CC2)cc1 (centres undefined) -17.9%
C=CCC1NS(=O)(=O)OC(CCc2ccccc2)C1O (centres undefined) 86.7%
COc1cccc(C(=O)CC(C(=O)O)c2ccc(F)cc2)c1 (centres undefined) 46.2%
CN(Cc1ccc(F)cc1)C(=O)COc1ccc2ccccc2c1 -8.26%
CCOC(=O)CCN(Cc1ccccc1)S(=O)(=O)c1csc(C(N)=O)c1 66.8%
Cc1cc(N2C(=O)C(=O)/C(=C(/O)c3ccccc3)C2c2cccs2)no1 (centres undefined) 5.65%
CC(=O)c1cccc(N2C(=NC(=O)CCc3ccccc3)SC3CS(=O)(=O)CC32)c1 (centres undefined) -37.1%
O=c1c2c(n3nnnc3n1-c1ccccc1)-c1ccccc1CC21CCCC1 25.1%
COc1cccc(-c2nnc(N(C)C(=O)C3CCOC3)s2)c1 (centres undefined) -11%
CC1CC2(CCCC2)Nc2ccc(F)cc21 (centres undefined) -17.4%
CNC(=S)N/N=C/c1cc(C)ccc1C 49.1%
Cc1cc(C(=O)N2CCCC(N3CCN(Cc4ccc5c(c4)OCO5)CC3)C2)n[nH]1 (centres undefined) -142%
COc1ccc(-c2noc(C(C)NC(=O)c3ccco3)n2)cc1OC (centres undefined) -100%
COC(=O)c1ccc(NC(=S)NN2CCCCC2c2cccnc2)cc1 (centres undefined) 6.69%
CCn1c(=O)c(C(=O)NCc2ccc3c(c2)OCO3)c(O)c2ccccc21 32.7%
CCOc1ccc(C(=O)Nc2ccc(Cc3ccncc3)cc2)cc1Br -0.135%
CN(C)CCCOC(=O)c1sc2ccccc2c1Cl -0.426%
Cc1ccc(NC(=S)NCC23C=CC(O2)C2C(=O)N(c4ccc(C)cc4)C(=O)C23)cc1 (centres undefined) 14.4%
COc1ccc(C(C(=O)NCC2CCCO2)N(C(=O)CNC(=O)c2ccco2)c2ccccc2)cc1OC (centres undefined) 18.3%
COc1cccc2c1Oc1cc([N+](=O)[O-])cc(N(C)C(C)=O)c1C=C2 -20.3%
N/C(=N\OC(=O)c1ccc(Cl)c([N+](=O)[O-])c1)c1ccccc1 -14.7%
CSc1cccc(NC(=O)CN2C(=O)c3ccccc3S2(=O)=O)c1 5.11%
Cc1onc(-c2ccccc2Cl)c1C(=O)N1CCCc2ccccc21 1.02%
CCc1nc(SCC(=O)NCCc2ccccc2)c2oc3ccccc3c2n1 -33.7%
COc1ccc(S(=O)(=O)N2CCOCC2)cc1NC(=O)Cc1coc2cc(C)ccc12
Cc1ccc(NC(=O)c2cnccn2)c(Br)c1 48.2%
COc1ccc(C(CC(=O)N2CCOCC2)C(C)C)cc1 (centres undefined) -3.88%
COc1ccc(N2CC(NS(=O)(=O)c3ccc(F)cc3)CC2=O)cc1 (centres undefined) 19.7%
CCCOc1ccc(-c2nnn(CC(=O)c3ccc4c(c3)OCCO4)n2)cc1 140%
Cc1ccccc1OCCC(=O)OCC(=O)N(C)c1c(N)n(Cc2ccccc2)c(=O)[nH]c1=O 52.8%
O=C1[C@H]2CC3CCC2(O3)[C@@H]2OCCCN12 (some centres undefined) 3.82%

Potency, inconclusive:
O=C(Nc1ccccc1Cl)C1CCCN(S(=O)(=O)c2ccc(F)cc2)C1 (centres undefined) 18.4 µM [activator, partial curve]
COc1ccccc1C(=O)C1CCCN(C(=O)c2cnn(C(C)C)c2)C1 (centres undefined) 6.51 µM [activator, partial curve]
COc1ccc(N=C2SC(CC(=O)Nc3ccc(OC)cc3OC)C(=O)N2C)cc1 (centres undefined) 20.6 µM [activator, single point]
Cc1cc(C)n2nc3nc(N4CCCCC4)nc(-c4ccco4)c3c2n1 0.326 µM [rising, full curve]
COc1ccc(CCNC(=O)CN2CCN(c3ccccc3Cl)CC2)cc1 6.51 µM [falling, single point]
CCCn1nc(C(=O)NNC(=O)CSC(C)C(=O)Nc2cc(C)on2)c2ccccc2c1=O (centres undefined) 0.58 µM [activator, full curve, poor fit]
CC1Cc2nc(SCC(=O)NC3CCCCC3)n(C)c(=O)c2S1 (centres undefined) 2.06 µM [rising, partial curve]
COCCN(Cc1ccccc1)C(=O)C1CCN(S(=O)(=O)c2ccc3c(c2)OCCO3)CC1 7.31 µM [falling, partial curve, poor fit]
COc1ccc(S(=O)(=O)Nc2c(C(=O)O)[nH]c3ccccc23)c(OC)c1 0.146 µM [falling, full curve, poor fit]
COc1ccc(C)cc1S(=O)(=O)N1c2ccc(C)cc2C2CN(C)CCC21 (centres undefined) 6.51 µM [activator, single point]
CSc1ccccc1NC(=S)Nc1ccccc1C(F)(F)F 0.164 µM [falling, full curve, poor fit]
O=C(NCC1(c2ccccc2)CCCC1)C1(c2ccccc2)CCCC1 16.4 µM [falling, partial curve]
COc1cc(C2NC(=S)NC3=C2C(=O)CCC3)ccc1O (centres undefined) 6.51 µM [activator, single point]
CN(C)c1ccc(C2N(c3ccc(F)cc3)C(=O)C3CCCN32)cc1 (centres undefined) 6.51 µM [activator, single point]
COc1ccc(F)cc1C(=O)C1CCCN(Cc2ccc(Oc3ncccn3)cc2)C1 (centres undefined) 16.4 µM [falling, single point]
CN(Cc1nc2ccccc2c(=O)[nH]1)C(=O)c1ccc(NC(=O)CSc2nnnn2C)cc1 3.66 µM [activator, full curve, poor fit]
COc1ccccc1N1CCN(C(=O)CSc2nc3ccccc3o2)CC1 0.651 µM [activator, full curve]
C/C(=N\NC(N)=O)c1c(F)cccc1F 0.082 µM [falling, full curve, poor fit]
Cc1ccc(N2CC(C(=O)OCC(=O)C(C)(C)C)CC2=O)cc1 (centres undefined) 6.51 µM [falling, single point]
Cc1cccc(-c2noc(CN(C(C)C)S(=O)(=O)c3ccc(F)cc3)n2)c1 2.59 µM [activator, partial curve, poor fit]
NS(=O)(=O)c1cccc(NC(=O)CSc2nnc(C3CC3)n2Cc2ccccc2)c1 10.3 µM [activator, single point]
Cc1ccc(C)c(C(=O)C(C)Sc2nc3nn(-c4ccccc4)c(=O)c-3c3n2CCCCC3)c1 (centres undefined) 6.51 µM [falling, single point]
Cc1ccc(S(=O)(=O)N2CCCCC2)cc1NC(=O)CNc1ccccc1N1CCCC1=O 0.0517 µM [activator, full curve, poor fit]
CC[C@@]12C(=O)N(c3cccc(Br)c3)C(=O)N1[C@H](c1ccc(Cl)cc1)[C@@H]1C(=O)N(C3CCCCC3)C(=O)[C@@H]12 32.6 µM [falling, partial curve, poor fit]
Cc1ccc(C(=O)NC(=C(Cl)Cl)S(=O)(=O)c2ccc(Cl)cc2)cc1 29.1 µM [falling, partial curve, poor fit]

Ordered by formula weight (descending): some entries from above.
Potency, inconclusive:
NS(=O)(=O)c1cccc(NC(=O)CSc2nnc(C3CC3)n2Cc2ccccc2)c1 10.3 µM [activator, single point]
COc1ccccc1C(=O)C1CCCN(C(=O)c2cnn(C(C)C)c2)C1 (centres undefined) 6.51 µM [activator, partial curve]
C/C(=N\NC(N)=O)c1c(F)cccc1F 0.082 µM [falling, full curve, poor fit]
